No constants are given. Whether binding was seen depends on the method and setting. Binding seen in cells or lysates may run through a third protein. Here binding means that the protein was enriched with, or labelled near, the bait; the list need not be complete.
B1: DKC1 (protein, UniProt O60832 1-514)
chain: MADAEVIILPKKHKKKKERKSLPEEDVAEIQHAEEFLIKPESKVAKLDTSQWPLLLKNFDKLNVRTTHYTPLACGSNPLKREIGDYIRTGFINLDKPSNPSSHEVVAWIRRILRVEKTGHSGTLDPKVTGCLIVCIERATRLVKSQQSAGKEYVGIVRLHNAIEGGTQLSRALETLTGALFQRPPLIAAVKRQLRVRTIYESKMIEYDPERRLGIFWVSCEAGTYIRTLCVHLGLLLGVGGQMQELRRVRSGVMSEKDHMVTMHDVLDAQWLYDNHKDESYLRRVVYPLEKLLTSHKRLVMKDSAVNAICYGAKIMLPGVLRYEDGIEVNQEIVVITTKGEAICMAIALMTTAVISTCDHGIVAKIKRVIMERDTYPRKWGLGPKASQKKLMIKQGLLDKHGKPTDSTPATWKQEYVDYSESAKKEVVAEVVKAPQVVAEAAKTAKRKRESESESDETPPAAPQLIKKEKKKSKKDKKAKAGLESGAEPGDGDSDTTKKKKKKKKAKEVELVSE
B2: HNRNPLL (protein, UniProt Q8WVV9 1-542)
chain: MSSSSSSPRETYEEDREYESQAKRLKTEEGEIDYSAEEGENRREATPRGGGDGGGGGRSFSQPEAGGSHHKVSVSPVVHVRGLCESVVEADLVEALEKFGTICYVMMMPFKRQALVEFENIDSAKECVTFAADEPVYIAGQQAFFNYSTSKRITRPGNTDDPSGGNKVLLLSIQNPLYPITVDVLYTVCNPVGKVQRIVIFKRNGIQAMVEFESVLCAQKAKAALNGADIYAGCCTLKIEYARPTRLNVIRNDNDSWDYTKPYLGRRDRGKGRQRQAILGEHPSSFRHDGYGSHGPLLPLPSRYRMGSRDTPELVAYPLPQASSSYMHGGNPSGSVVMVSGLHQLKMNCSRVFNLFCLYGNIEKVKFMKTIPGTALVEMGDEYAVERAVTHLNNVKLFGKRLNVCVSKQHSVVPSQIFELEDGTSSYKDFAMSKNNRFTSAGQASKNIIQPPSCVLHYYNVPLCVTEETFTKLCNDHEVLTFIKYKVFDAKPSAKTLSGLLEWECKTDAVEALTALNHYQIRVPNGSNPYTLKLCFSTSSHL
B3: HNRNPR (protein, UniProt O43390 1-633)
chain: MANQVNGNAVQLKEEEEPMDTSSVTHTEHYKTLIEAGLPQKVAERLDEIFQTGLVAYVDLDERAIDALREFNEEGALSVLQQFKESDLSHVQNKSAFLCGVMKTYRQREKQGSKVQESTKGPDEAKIKALLERTGYTLDVTTGQRKYGGPPPDSVYSGVQPGIGTEVFVGKIPRDLYEDELVPLFEKAGPIWDLRLMMDPLSGQNRGYAFITFCGKEAAQEAVKLCDSYEIRPGKHLGVCISVANNRLFVGSIPKNKTKENILEEFSKVTEGLVDVILYHQPDDKKKNRGFCFLEYEDHKSAAQARRRLMSGKVKVWGNVVTVEWADPVEEPDPEVMAKVKVLFVRNLATTVTEEILEKSFSEFGKLERVKKLKDYAFVHFEDRGAAVKAMDEMNGKEIEGEEIEIVLAKPPDKKRKERQAARQASRSTAYEDYYYHPPPRMPPPIRGRGRGGGRGGYGYPPDYYGYEDYYDDYYGYDYHDYRGGYEDPYYGYDDGYAVRGRGGGRGGRGAPPPPRGRGAPPPRGRAGYSQRGAPLGPPRGSRGGRGGPAQQQRGRGSRGSRGNRGGNVGGKRKADGYNQPDSKRRQTNNQQNWGSQPIAQQPLQQGGDYSGNYGYNNDNQEFYQDTYGQQWK
B4: RBM14 (protein, UniProt Q96PK6 1-669)
chain: MKIFVGNVDGADTTPEELAALFAPYGTVMSCAVMKQFAFVHMRENAGALRAIEALHGHELRPGRALVVEMSRPRPLNTWKIFVGNVSAACTSQELRSLFERRGRVIECDVVKDYAFVHMEKEADAKAAIAQLNGKEVKGKRINVELSTKGQKKGPGLAVQSGDKTKKPGAGDTAFPGTGGFSATFDYQQAFGNSTGGFDGQARQPTPPFFGRDRSPLRRSPPRASYVAPLTAQPATYRAQPSVSLGAAYRAQPSASLGVGYRTQPMTAQAASYRAQPSVSLGAPYRGQLASPSSQSAAASSLGPYGGAQPSASALSSYGGQAAAASSLNSYGAQGSSLASYGNQPSSYGAQAASSYGVRAAASSYNTQGAASSLGSYGAQAASYGAQSAASSLAYGAQAASYNAQPSASYNAQSAPYAAQQAASYSSQPAAYVAQPATAAAYASQPAAYAAQATTPMAGSYGAQPVVQTQLNSYGAQASMGLSGSYGAQSAAAATGSYGAAAAYGAQPSATLAAPYRTQSSASLAASYAAQQHPQAAASYRGQPGNAYDGAGQPSAAYLSMSQGAVANANSTPPPYERTRLSPPRASYDDPYKKAVAMSKRYGSDRRLAELSDYRRLSESQLSFRRSPTKSSLDYRRLPDAHSDYARYSGSYNDYLRAAQMHSGYQRRM

Protein sequences, listed by entry. Tags and fused reporters are not part of them.
UniProt P03372: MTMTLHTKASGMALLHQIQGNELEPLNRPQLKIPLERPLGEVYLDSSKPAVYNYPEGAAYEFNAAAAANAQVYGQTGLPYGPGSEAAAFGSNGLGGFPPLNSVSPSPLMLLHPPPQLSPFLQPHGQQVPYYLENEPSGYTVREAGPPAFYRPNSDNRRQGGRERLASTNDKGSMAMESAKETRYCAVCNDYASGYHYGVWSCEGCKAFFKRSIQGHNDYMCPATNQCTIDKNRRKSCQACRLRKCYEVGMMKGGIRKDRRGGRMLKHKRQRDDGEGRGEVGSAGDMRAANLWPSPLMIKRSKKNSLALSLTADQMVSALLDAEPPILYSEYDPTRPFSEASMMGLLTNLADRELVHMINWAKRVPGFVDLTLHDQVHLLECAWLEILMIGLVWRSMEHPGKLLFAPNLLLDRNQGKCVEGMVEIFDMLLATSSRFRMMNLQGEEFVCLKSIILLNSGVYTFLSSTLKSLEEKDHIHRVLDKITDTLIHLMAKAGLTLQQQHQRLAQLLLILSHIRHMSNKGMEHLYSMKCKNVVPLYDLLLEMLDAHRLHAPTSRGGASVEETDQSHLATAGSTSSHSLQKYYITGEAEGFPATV

molecular target: estrogen receptor alpha (ER) (human (endogenous in MCF-7 and ZR-75)) (UniProt P03372); test: affinity purification with mass spectrometry; anti-ER antibody (Santa Cruz sc-8002) on Dynabeads Protein G, 1.5 mg lysate of MCF-7 or ZR-75 cells overnight at 4°C; cells starved, vehicle or 10 µM ERX-11 for 2 hr, then 10 nM E2 for 2 hr; the named proteins are ER binders whose co-precipitation was disrupted by ERX-11

binding, binds:
B1
B2
B3
B4

Source: publication PMC5548489
